Reference: PubChem BioAssay AID743255 (National Center for Advancing Translational Sciences (NCATS), 2014)
Among all 390,000 compounds or so, about 910 (0.23%) were called active. The inconclusive results got no clear call from the source; some entries with a clear call stand among them for comparison. Calls follow the shape of the dose curve; as a rule, active = well fitted inhibition curve with a large enough effect; inconclusive = small, poorly fitted or top-dose-only effect; inactive = no such curve, though single readings can be large or run the other way. A potency beside an inconclusive call is a rough fit, not a confirmed value.

By UniProt entry, the sequences of proteins in these tests, tags left out. Where a name states a change or a piece, a line headed by the entry shows the natural chain unless it says otherwise.
UniProt O94782: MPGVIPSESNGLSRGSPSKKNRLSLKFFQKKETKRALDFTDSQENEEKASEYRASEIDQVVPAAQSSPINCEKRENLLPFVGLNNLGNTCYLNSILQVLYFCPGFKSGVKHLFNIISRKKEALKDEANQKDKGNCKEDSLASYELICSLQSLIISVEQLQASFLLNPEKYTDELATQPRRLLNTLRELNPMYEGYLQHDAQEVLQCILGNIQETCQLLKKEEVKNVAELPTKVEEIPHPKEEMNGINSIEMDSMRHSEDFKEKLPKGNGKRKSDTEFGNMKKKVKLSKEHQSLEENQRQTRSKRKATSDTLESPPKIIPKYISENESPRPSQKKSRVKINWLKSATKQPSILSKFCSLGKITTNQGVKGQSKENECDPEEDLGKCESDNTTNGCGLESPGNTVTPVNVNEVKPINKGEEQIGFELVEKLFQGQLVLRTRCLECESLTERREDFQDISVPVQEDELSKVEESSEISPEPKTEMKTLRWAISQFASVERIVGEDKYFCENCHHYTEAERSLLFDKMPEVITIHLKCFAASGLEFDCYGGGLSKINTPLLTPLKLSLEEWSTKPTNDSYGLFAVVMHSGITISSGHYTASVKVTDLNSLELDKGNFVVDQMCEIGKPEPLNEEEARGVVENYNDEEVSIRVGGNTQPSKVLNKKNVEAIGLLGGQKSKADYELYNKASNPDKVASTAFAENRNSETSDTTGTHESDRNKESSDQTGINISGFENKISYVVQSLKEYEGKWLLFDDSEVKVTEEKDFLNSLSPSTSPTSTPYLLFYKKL

Molecular target: Ubiquitin carboxyl-terminal hydrolase 1 (Homo sapiens) (UniProt O94782)
Experiment: Inhibitors of USP1/UAF1: Primary Screen; also: nearly all actives have a fitted effect of over 60% in size
Conditions: recombinant USP1/UAF1, Ub-Rhodamine cleavage fluorescence; activity change, negative = inhibition: at 57.1 µM (top of the series)
How it was run: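 Step one: compound is pinned into 1nM USP1/UAF1 in HEPES pH 7.8 buffer with TCEP. Step two: 15 min room-temperature incubation. Step three: Ub-Rho (150nM final) starts cleavage, tracked by fluorescence over six one-minute reads.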
% is scaled to controls: 0 for no effect and ±100 for the full control effect; potency is read from the fitted curve at half-maximal effect.

Row | SMILES | activity change, negative = inhibition | Potency
1 | Cc1cccc(-c2nc(Cn3c(SCc4cc(C)ccc4C)nc4ccncc43)c(C)o2)c1 | inactive: -24.3% | –
2 | CC1CN(C(=O)N2CCC(C(=O)NC3CCCCCC3)CC2)c2ccccc2O1 (stereo unspecified) | inactive: 4.38% | –
3 | COc1ccc(C)cc1NC(=O)c1nn(-c2ccccc2)cc1OC | – | inconclusive: 35.5 µM [inhibitor, partial curve]
4 | COc1cccc(C2CC(=O)N3CN(C4CCCCC4)CSC3=C2C#N)c1 (stereo unspecified) | – | inconclusive: 0.708 µM [inhibitor, full curve]
5 | CCN1CCC(N(Cc2ccc3c(c2)OCO3)C(=O)Nc2ccccc2OC)CC1 | – | inconclusive: 3.98 µM [inhibitor, single point]
6 | CCOc1cc(/C=N/NC(=O)c2ccc(-c3csc(Nc4ccc(C)cc4)n3)cc2)ccc1OCC(=O)O | inactive: -5.72% | –
7 | COCCCNC1=C(C#N)C(=O)NC(c2cccs2)S1 (stereo unspecified) | inactive: -11.9% | –
8 | COc1cccc(NC(=O)c2cc3c(=O)n(Cc4cccnc4)ccc3nc2C)c1 | – | inconclusive: 3.98 µM [inhibitor, partial curve]
9 | COc1ccc(OC)c(C(=O)CSc2nc3cccnc3n2C)c1 | inactive: -5.8% | –
10 | Cc1ccc(C2C(=O)N(C3CCCCCC3)CC(=O)N2C(C)C)cc1 (stereo unspecified) | inactive: -20% | –
11 | Cc1ccc2cc3cc(C(=O)N4CC(C)CC(C)C4)oc3nc2c1 (stereo unspecified) | inactive: -25.6% | –
12 | Cc1cc([N+](=O)[O-])ccc1-c1ccc(C2Nc3ccccc3C(=O)N2O)o1 (stereo unspecified) | inactive: -19.8% | –
13 | CCN1C(=O)[C@H]2[C@@H](c3ccc(-c4ccc(Cl)c(Cl)c4)c(OC)c3)N3CCCC[C@@]3(C(=O)OC)[C@H]2C1=O | – | inconclusive: 12.6 µM [inhibitor, partial curve, poor fit]
14 | COc1ccc(CCNC(=O)c2cc3c(=O)n4ccccc4nc3n(CC3CCCO3)c2=N)cc1OC (stereo unspecified) | – | inconclusive: 5.01 µM [inhibitor, partial curve]
15 | Cc1ccc2c(c1)C(N1CCCC1=O)CC(c1ccco1)N2 (stereo unspecified) | inactive: -23.3% | –
16 | COc1ccc(OC)c(C2=NS(=O)(=O)N(C)C(C(=O)Nc3ccc(C(C)=O)cc3)=C2)c1 | – | inconclusive: 79.4 µM [inhibitor, partial curve, poor fit]
17 | Clc1ccc(-c2csc(-c3ccno3)n2)cc1 | – | inconclusive: 8.91 µM [inhibitor, partial curve, poor fit]
18 | CCc1c(C)nc(SCC(=O)NC2CCCC2)[nH]c1=O | – | inconclusive: 44.7 µM [inhibitor, single point]
19 | O=C(Cc1ccccc1)N/N=C/C=C/c1ccccc1[N+](=O)[O-] | – | inconclusive: 0.794 µM [inhibitor, full curve]
20 | COc1ccc(Nc2nc3ccccc3n2C)cc1 | inactive: -13.1% | –
21 | O=C(Nc1ccccc1Cl)c1ccc2c(=O)n3c(nc2c1)CCC3 | inactive: -3.55% | –
22 | CC(C)Oc1cccc(C(=O)C2CCCN(Cc3cnn(C(C)C)c3)C2)c1 (stereo unspecified) | – | inconclusive: 31.6 µM [inhibitor, partial curve]

Row | SMILES | activity change, negative = inhibition | Potency
23 | CCSC(C)CC1C/C(=N/O)c2c(CC)noc2C1 (stereo unspecified) | – | inconclusive: 35.5 µM [inhibitor, partial curve, poor fit]
24 | CCOc1ccc(N2C(=O)CC(Sc3nc(C)cc(C)c3C#N)C2=O)cc1 (stereo unspecified) | – | inconclusive: 44.7 µM [inhibitor, partial curve]
25 | N#CC1(NC(=O)COC(=O)Cc2c[nH]c3ccccc23)CCCCC1 | – | inconclusive: 0.141 µM [inhibitor, full curve, poor fit]
26 | CCC(C)Nc1nc(-c2cccc(OC)c2O)nc2ccccc12 (stereo unspecified) | – | inconclusive: 31.6 µM [inhibitor, partial curve]
27 | CCOc1ccc(C(=O)N2CCc3cc(OC)c(OC)cc3C2)cc1OCC | – | inconclusive: 8.91 µM [inhibitor, partial curve, poor fit]
28 | Cc1ccccc1C(=O)NNC(=O)Cc1cccc2ccccc12 | – | inconclusive: 6.31 µM [inhibitor, single point]
29 | C/C(=N/NS(=O)(=O)c1cccc([N+](=O)[O-])c1)c1c[nH]c2ccccc12 | – | inconclusive: 39.8 µM [inhibitor, single point]
30 | CCC(C)Sc1ccc([C@H]2N[C@@](C)(C(=O)OC)[C@H]3C(=O)N(CC)C(=O)[C@@H]23)cc1 (stereo partly specified) | – | inconclusive: 0.112 µM [inhibitor, full curve, poor fit]
31 | CC[n+]1c(/C=C/C=C/N(C(C)=O)c2ccccc2)sc2cc(OC)ccc21 | – | active: 28.2 µM
32 | FC(F)Sc1ccc(N=C2NN=C(c3ccc4c(c3)OCCO4)CS2)cc1 | – | inconclusive: 15.8 µM [inhibitor, partial curve]
33 | CC(C)=CCC/C(C)=C/CNC(=O)CC1C[C@H](C(=O)N(C(C)C)C(C)C)[C@@]2(C)c3[nH]c4ccccc4c3CCN2C1=O (stereo partly specified) | – | inconclusive: 100 µM [inhibitor, partial curve, poor fit]
34 | CCOc1ccc(C(=O)N(CC(=O)Nc2cccc(C)c2C)CC2CCCO2)cc1OC (stereo unspecified) | inactive: -4.34% | –
35 | COc1ccccc1N1CCN(C(=O)c2ccc(Cl)c(S(=O)(=O)N3CCOCC3)c2)CC1 | inactive: 2.11% | –
36 | Cc1ccc(S(=O)Cc2ccc(C(=O)NC3CCCCCC3)o2)cc1 (stereo unspecified) | – | inconclusive: 50.1 µM [inhibitor, partial curve, poor fit]
37 | CCc1cccc(NC(=O)c2c(N3CCCC3=O)c3cc(C)ccc3n2C)c1 | – | inconclusive: 31.6 µM [inhibitor, partial curve]
38 | COCCOC(=O)c1c(C)oc2ccc(OC(=O)c3cccs3)cc12 | – | inconclusive: 25.1 µM [inhibitor, partial curve]
39 | COc1ccc(N=Cc2ccccc2O)cc1 | – | inconclusive: 44.7 µM [inhibitor, single point]
40 | CC1CC(C)(C)CC2(C1)NC(=O)N(CC(=O)Nc1ccc3c(c1)OCO3)C2=O (stereo unspecified) | – | inconclusive: 0.1 µM [inhibitor, full curve, poor fit]
41 | Cc1ccc(S(=O)(=O)Nc2ccc3[nH]c(=O)sc3c2)cc1C | – | inconclusive: 7.94 µM [inhibitor, partial curve, poor fit]
42 | CCCCOC(=O)c1ccc(NC(=O)COC(=O)C2CC2C)cc1 (stereo unspecified) | – | inconclusive: 44.7 µM [inhibitor, partial curve, poor fit]
43 | O=S(=O)(c1ccc(Br)cc1)c1nc(-c2cccs2)oc1SCc1ccc(F)cc1 | inactive: -15.3% | –
44 | CC(=O)N1CCc2c(sc(NC(=O)CN3C(=O)CCC3=O)c2C(N)=O)C1 | – | inconclusive: 31.6 µM [inhibitor, partial curve]

One compound at a time, as listed above:
N#CC1(NC(=O)COC(=O)Cc2c[nH]c3ccccc23)CCCCC1 is listed as Potency: inconclusive: 0.141 µM [inhibitor, full curve, poor fit]
CCC(C)Sc1ccc([C@H]2N[C@@](C)(C(=O)OC)[C@H]3C(=O)N(CC)C(=O)[C@@H]23)cc1 (stereo partly specified) is listed as Potency: inconclusive: 0.112 µM [inhibitor, full curve, poor fit]
CCOc1ccc(C(=O)N2CCc3cc(OC)c(OC)cc3C2)cc1OCC is listed as Potency: inconclusive: 8.91 µM [inhibitor, partial curve, poor fit]
COc1ccccc1N1CCN(C(=O)c2ccc(Cl)c(S(=O)(=O)N3CCOCC3)c2)CC1 is listed as activity change, negative = inhibition: inactive: 2.11%

(next part)

Row | SMILES | activity change, negative = inhibition | Potency
45 | CC(=O)C(C(C)=O)C1(O)C(=O)c2ccccc2C1=O | – | active: 7.94 µM
46 | CCC1CCCCN1CCCNC(=O)c1cn(CC)c2ccc(S(=O)(=O)N(C)C3CCCCC3)cc2c1=O (stereo unspecified) | – | inconclusive: 14.1 µM [inhibitor, partial curve, poor fit]
47 | COc1ccc(CNC(=O)C2=CC(c3ccc(C)cc3)=NS(=O)(=O)N2C)cc1 | inactive: -21.6% | –
48 | Cc1ccc(CNC(=O)c2ccc3c(c2)NC(=O)C(CS(=O)(=O)Cc2ccc(F)cc2)N3)cc1 (stereo unspecified) | – | inconclusive: 39.8 µM [inhibitor, partial curve, poor fit]
49 | COc1cc(/C=C(\C#N)c2nc3ccccc3[nH]2)ccc1O | – | inconclusive: 39.8 µM [inhibitor, partial curve]
50 | O=C(CCC(=O)N1CCOCC1)c1ccc(F)cc1 | – | inconclusive: 17.8 µM [inhibitor, partial curve]
51 | O=C1/C(=C/c2ccc(N3CCCC3)cc2)NC(=S)N1C1CC1 | – | inconclusive: 31.6 µM [inhibitor, partial curve, poor fit]
52 | CCCCC(=O)Nc1cc(-c2nc3cccnc3s2)ccc1C | – | inconclusive: 3.16 µM [inhibitor, single point]
53 | COc1cc(C(=O)OCc2cc(=O)oc3c(C)c(C)ccc23)ccc1OC(F)F | inactive: -22.1% | –
54 | COc1ccccc1NC(=O)c1ccccc1N(Cc1ccccc1)S(C)(=O)=O | inactive: -21.1% | –
55 | C=C(C)Cn1c(CCn2c3ccccc3c3ccccc32)n[nH]c1=S | – | inconclusive: 50.1 µM [inhibitor, partial curve, poor fit]
56 | Nc1ccc(C(=O)Nc2nc3ccccc3s2)cc1 | inactive: 2.12% | –
57 | Cc1cc(NC(=O)CSc2ncccn2)no1 | – | inconclusive: 3.55 µM [inhibitor, partial curve]
58 | CCCCCC1C(=O)N2C=C(c3ccccc3)c3ccccc3N2C1=O (stereo unspecified) | inactive: -16.3% | –
59 | CCOC(=O)c1ccc(NC(=O)CCCn2nc(C)c3sc4ccccc4c3c2=O)cc1 | – | inconclusive: 126 µM [inhibitor, partial curve, poor fit]
60 | COc1ccc([C@@H]2C[C@@H](c3ccccc3)Oc3cc(OC)cc(OC)c32)cc1 | – | inconclusive: 3.98 µM [inhibitor, full curve, poor fit]
61 | COc1cccc(-c2nn(-c3ccccc3)cc2CN(C)C(C)c2ccncn2)c1 (stereo unspecified) | – | inconclusive: 0.891 µM [inhibitor, full curve, poor fit]
62 | O=C(O)C1CCCC2CN3CCc4c([nH]c5ccccc45)C3C(O)C21 (stereo unspecified) | – | inconclusive: 14.1 µM [inhibitor, partial curve, poor fit]
63 | CN(C)c1cc2c3ccccc3n(C)c2cc1N | – | inconclusive: 44.7 µM [inhibitor, partial curve]
64 | O=c1oc2c3c4c(cc2s1)CCCN4CCC3 | – | inconclusive: 15.8 µM [inhibitor, partial curve]
65 | COc1ccc(/C=C2\CCn3c2nc2cc(C(=O)O)ccc2c3=O)cc1O | – | inconclusive: 31.6 µM [inhibitor, partial curve]
66 | O=C(N/N=C/C(Cl)=C/c1ccccc1)c1ccccc1F | – | inconclusive: 7.08 µM [inhibitor, single point]
